PubChem BioAssay AID1259405, NCATS, 2018

- Screen: 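Silenced genes that increase secreted GFP made by CHO cells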 (primary screen)
- Cell system: Chinese hamster CHO-K1 ovary cells with stable secreted eGFP expression
- Reagents: single siRNA against mouse genes, 0.8 pmol siRNA per well (2 µl of 400 nM stock)
- Duration: 3 days
- Measured: 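Percent of the per-plate non-targeting control median for intracellular GFP per well by laser scanning cytometry and for cell viability by ATP luminescence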
- Direction: GFP, % of control: higher = more GFP per well, higher productivity; viability (ATP), % of control: higher = more viable cells (more ATP)
- Rule for the call: 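a knock-down is called active if GFP reaches 120% or more of non-targeting control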
The deposit covers about 50,000 reagents; shown is a random part of them. About 4,000 of them (8%) count as active. 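Mouse siRNA library applied to hamster cells; one well for each siRNA.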 Unmarked entries are inactive. Reagents against one gene are numbered here.

no.	target	siRNA no.	GFP, % of control	viability (ATP), % of control
1	Csnk2a2	1	63.8	58
2	Ccny	1	37.4	49.9
3	Ccny	2	81.7	79
4	Ccny	3	93.5	122
5	Kera	1	94.9	56.6
6	Kera	2	103	68.6
7	Kera	3	67.5	73.5
8	Ankle1	1	78	80.8
9	Ankle1	2	85.8	92.3
10	Ankle1	3	85.2	97.9
11	Fgf18	1	81.4	58
12	Fgf18	2	19.5	24.3
13	Fgf18	3	78.3	47.3
14	Nucks1	1	86.1	67.4
15	Nucks1	2	0	182
16	Nucks1	3	128 (active)	127
17	Zfp830	1	66.2	60.8
18	Zfp830	2	21.9	41.4
19	Zfp830	3	93.9	114
20	Fbxo44	1	61	64.3
21	Fbxo44	2	90.2	70.2
22	Fbxo44	3	83.5	68.2
23	Oaf	1	104	79.3
24	Oaf	2	156 (active)	88.1
25	Oaf	3	122 (active)	93
26	Pkdrej	1	116	110
27	Pkdrej	2	58.5	59.8
28	Pkdrej	3	74	79.6
29	Epn3	1	63.4	102
30	Epn3	2	80.6	109
31	Arhgap20	1	113	121
32	Arhgap20	2	77.5	88.2
33	Arhgap20	3	69.1	64.6
34	Slc4a1ap	1	46.3	75.7
35	Slc4a1ap	2	83.7	99.6
36	Dusp8	1	72.5	84.9
37	Dusp8	2	46.4	46.7
38	Ltap1	1	82.9	68.9
39	Ltap1	2	76.2	87.8
40	Ltap1	3	84.1	90.1
41	Cox8a	1	90.1	110
42	Cox8a	2	86.8	66.6
43	Cox8a	3	61.9	104
44	Rrm2	1	74.9	30.5
45	Rrm2	2	81.4	42.5
46	Mgat4f	1	63.2	100
47	Mgat4f	2	64.3	77.7
48	Mgat4f	3	66.2	85.9
49	Or13ae2	1	57.9	42.9
50	Or13ae2	2	76.1	78.6
51	Or13ae2	3	42.1	69
52	Tusc1	1	80	77.3
53	Tusc1	2	51.3	26
54	Tusc1	3	121 (active)	82.4
55	Tpp1	1	75.4	98
56	Tpp1	2	120	72.3
57	Tpp1	3	43.2	46.9
